Measured values reported in the supplement of paper PMC8728848.
The other results are listed elsewhere or left out.

Assays:
Assay in all cases: glycan array binding signal (z-score within array); higher = stronger binding
Details in all cases: glycan notation: IUPAC condensed, linker removed
[1] = molecular target: Gal(b1-4)GlcNAc(b1-3)Gal(b1-4)[Fuc(a1-3)GlcNAc(b1-6)]Gal(b1-4)Glc
In short: (§1)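 Arrays were curated from the Consortium for Functional Glycomics database, 3228 in total, and kept only where the protein sequence was available. Binding is expressed as a within-array Z-score. This score was averaged across arrays of the same protein sequence at different concentrations or buffers and across linkers, and negative values can be read as non-binding.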

[2] = molecular target: Gal(b1-4)GlcNAc(b1-3)Gal(b1-4)[Fuc(a1-3)]GlcNAc(b1-3)Gal(b1-4)[Fuc(a1-3)]GlcNAc
In short: as §1

[3] = molecular target: Gal(b1-4)GlcNAc(b1-3)GalNAc
In short: as §1

[4] = molecular target: Gal(b1-4)GlcNAc(b1-3)[Fuc(a1-3)GlcNAc(b1-6)]Gal(b1-4)Glc
In short: as §1

[5] = molecular target: Gal(b1-4)GlcNAc(b1-3)[Gal(b1-4)GlcNAc(b1-6)]Gal(b1-4)GlcNAc
In short: as §1

[6] = molecular target: Gal(b1-4)GlcNAc(b1-3)[Gal(b1-4)GlcNAc(b1-6)]GalNAc
In short: as §1

[7] = molecular target: Gal(b1-4)GlcNAc(b1-3)[GlcNAc(b1-6)]Gal(b1-4)GlcNAc
In short: as §1

[8] = molecular target: Gal(b1-4)GlcNAc(b1-6)Gal(b1-4)GlcNAc
In short: as §1

[9] = molecular target: Gal(b1-4)GlcNAc(b1-6)Gal(b1-4)GlcNAc(b1-6)GalNAc
In short: as §1

[10] = molecular target: Gal(b1-4)GlcNAc(b1-6)GalNAc
In short: as §1

[11] = molecular target: Gal(b1-4)GlcNAc(b1-6)[Gal(b1-3)]GalNAc
In short: as §1

[12] = molecular target: Gal(b1-4)GlcNAc(b1-6)[Gal(b1-4)GlcNAc(b1-3)]GalNAc
In short: as §1

[13] = molecular target: Gal(b1-4)GlcNAc6P
In short: as §1

[14] = molecular target: Gal(b1-6)Gal
In short: as §1

[15] = molecular target: Gal3S(b1-3)GalNAc
In short: as §1

[16] = molecular target: Gal3S(b1-3)GlcNAc
In short: as §1

[17] = molecular target: Gal3S(b1-3)[Fuc(a1-4)]GlcNAc
In short: as §1

[18] = molecular target: Gal3S(b1-4)Glc
In short: as §1

[19] = molecular target: Gal3S(b1-4)Glc6S
In short: as §1

[20] = molecular target: Gal3S(b1-4)GlcNAc
In short: as §1

[21] = molecular target: Gal3S(b1-4)GlcNAc6S
In short: as §1

[22] = molecular target: Gal3S(b1-4)[Fuc(a1-3)]Glc
In short: as §1

[23] = molecular target: Gal3S(b1-4)[Fuc(a1-3)]Glc6S
In short: as §1

[24] = molecular target: Gal3S(b1-4)[Fuc(a1-3)]GlcNAc
In short: as §1

[25] = molecular target: Gal3S(b1-4)[Fuc(a1-3)]GlcNAc6S
In short: as §1

[26] = molecular target: Gal3S4S(b1-4)GlcNAc
In short: as §1

[27] = molecular target: Gal3S6S(b1-4)GlcNAc
In short: as §1

[28] = molecular target: Gal3S6S(b1-4)GlcNAc6S
In short: as §1

[29] = molecular target: Gal4S(b1-4)GlcNAc
In short: as §1

[30] = molecular target: Gal4S6S(b1-4)GlcNAc
In short: as §1

[31] = molecular target: Gal6P(b1-4)GlcNAc
In short: as §1

[32] = molecular target: Gal6S(b1-3)GlcNAc
In short: as §1

[33] = molecular target: Gal6S(b1-3)GlcNAc6S
In short: as §1

[34] = molecular target: Gal6S(b1-4)Glc
In short: as §1

[35] = molecular target: Gal6S(b1-4)Glc6S
In short: as §1

[36] = molecular target: Gal6S(b1-4)GlcNAc
In short: as §1

[37] = molecular target: Gal6S(b1-4)GlcNAc6S
In short: as §1

[38] = molecular target: GalNAc(a1-3)Gal
In short: as §1

[39] = molecular target: GalNAc(a1-3)GalNAc
In short: as §1

[40] = molecular target: GalNAc(a1-3)GalNAc(a1-3)Gal(a1-4)Gal(b1-4)GlcNAc
In short: as §1

[41] = molecular target: GalNAc(a1-3)GalNAc(b1-3)Gal(a1-4)Gal(b1-4)Glc
In short: as §1

[42] = molecular target: GalNAc(a1-3)GalNAc(b1-3)Gal(a1-4)Gal(b1-4)GlcNAc
In short: as §1

[43] = molecular target: GalNAc(b1-3)Gal
In short: as §1

[44] = molecular target: GalNAc(b1-3)Gal(a1-4)Gal(b1-4)GlcNAc
In short: as §1

[45] = molecular target: GalNAc(b1-3)Gal(a1-4)Gal(b1-4)GlcNAc(b1-3)Gal(b1-4)Glc
In short: as §1

B1: GST Gap3 (Streptococcus parasanguinis) (protein)
chain: MTKQLISEIYWNEIRKGENYLYGSQIKFQEDLVNFYNPQLASGKPIVTFKSRTNYQGDRHSPDLPILIQGNRYLLEYQIDAVPANSFFLQLDFFNRQAEQIESIVLRNSGESFIFPKDTFTYTLTLMSAGCQSVTYQKFMIYDINDEEKKNHIVENRYLRELLPKDLDLVKNLIEYI
**Q.** For B1, which “glycan array binding signal (z-score)” value [1] is on record?
**A.** -0.093

**Q.** And the “glycan array binding signal (z-score)” value [2]?
**A.** -0.128

**Q.** And the “glycan array binding signal (z-score)” value [3]?
**A.** 0.105

**Q.** And the “glycan array binding signal (z-score)” value [4]?
**A.** -0.203

**Q.** What about the “glycan array binding signal (z-score)” value [5] of the same binder?
**A.** 0.441

**Q.** And the “glycan array binding signal (z-score)” value [6]?
**A.** 0.279

**Q.** And the “glycan array binding signal (z-score)” value [7]?
**A.** -0.023

**Q.** And the “glycan array binding signal (z-score)” value [8]?
**A.** -0.359

**Q.** What about the “glycan array binding signal (z-score)” value [9] of the same binder?
**A.** -0.125

**Q.** And the “glycan array binding signal (z-score)” value [10]?
**A.** 0.816

**Q.** And the “glycan array binding signal (z-score)” value [11]?
**A.** -0.428

**Q.** And the “glycan array binding signal (z-score)” value [12]?
**A.** -0.18

**Q.** And the “glycan array binding signal (z-score)” value [13]?
**A.** -0.287

**Q.** And the “glycan array binding signal (z-score)” value [14]?
**A.** -0.015

**Q.** And the “glycan array binding signal (z-score)” value [15]?
**A.** -0.28

**Q.** And the “glycan array binding signal (z-score)” value [16]?
**A.** -0.429

**Q.** What about the “glycan array binding signal (z-score)” value [17] of the same binder?
**A.** 0.041

**Q.** What about the “glycan array binding signal (z-score)” value [18] of the same binder?
**A.** -0.47

**Q.** What about the “glycan array binding signal (z-score)” value [19] of the same binder?
**A.** -0.055

**Q.** What about the “glycan array binding signal (z-score)” value [20] of the same binder?
**A.** 0.19

**Q.** What about the “glycan array binding signal (z-score)” value [21] of the same binder?
**A.** 0.277

**Q.** What about the “glycan array binding signal (z-score)” value [22] of the same binder?
**A.** -0.245

**Q.** And the “glycan array binding signal (z-score)” value [23]?
**A.** 1.61

**Q.** What about the “glycan array binding signal (z-score)” value [24] of the same binder?
**A.** -0.723

**Q.** What about the “glycan array binding signal (z-score)” value [25] of the same binder?
**A.** -0.47

**Q.** What about the “glycan array binding signal (z-score)” value [26] of the same binder?
**A.** 0.8

**Q.** What about the “glycan array binding signal (z-score)” value [27] of the same binder?
**A.** 0.121

**Q.** What about the “glycan array binding signal (z-score)” value [28] of the same binder?
**A.** 0.367

**Q.** What about the “glycan array binding signal (z-score)” value [29] of the same binder?
**A.** -0.319

**Q.** And the “glycan array binding signal (z-score)” value [30]?
**A.** 0.4

**Q.** What about the “glycan array binding signal (z-score)” value [31] of the same binder?
**A.** -0.491

**Q.** What about the “glycan array binding signal (z-score)” value [32] of the same binder?
**A.** -0.206

**Q.** And the “glycan array binding signal (z-score)” value [33]?
**A.** 0.07

**Q.** And the “glycan array binding signal (z-score)” value [34]?
**A.** 0.03

**Q.** What about the “glycan array binding signal (z-score)” value [35] of the same binder?
**A.** 0.308

**Q.** What about the “glycan array binding signal (z-score)” value [36] of the same binder?
**A.** 0.084

**Q.** And the “glycan array binding signal (z-score)” value [37]?
**A.** 0.129

**Q.** And the “glycan array binding signal (z-score)” value [38]?
**A.** 0.36

**Q.** What about the “glycan array binding signal (z-score)” value [39] of the same binder?
**A.** -0.227

**Q.** What about the “glycan array binding signal (z-score)” value [40] of the same binder?
**A.** -0.37

**Q.** And the “glycan array binding signal (z-score)” value [41]?
**A.** -0.329

**Q.** And the “glycan array binding signal (z-score)” value [42]?
**A.** 0.043

**Q.** And the “glycan array binding signal (z-score)” value [43]?
**A.** 0.088

**Q.** What about the “glycan array binding signal (z-score)” value [44] of the same binder?
**A.** -0.177

**Q.** And the “glycan array binding signal (z-score)” value [45]?
**A.** -0.089
